Reference: patent US11325893B2, “Hydrofluoroethers and methods of using same” (3M INNOVATIVE PROPERTIES COMPANY, priority 2018, dated 2022)

Assays:
[1] = Atmospheric lifetime from relative rate studies with hydroxyl radicals, chloromethane as reference compound; assay type: physicochemical; details: reaction with hydroxyl radicals in laboratory chamber, CH3Cl reference, FTIR quantification
[2] = Global Warming Potential (GWP) by three-part IPCC AR5 method; details: 100 yr time horizon, relative to CO2; from measured radiative efficiency and atmospheric lifetime

| Molecule | Atmospheric Lifetime [1] | GWP, 100 yr [2] |
| --- | --- | --- |
| COC(F)(C(F)(F)C(F)(F)F)C(F)(C(F)(F)F)C(F)(F)F (centres unmarked) [CE1, NOVEC 7300] | 3.8 yr | 200 |
| FC(F)(F)C(F)(F)C1(F)OCCC1(C(F)(F)F)C(F)(F)F (centres unmarked) [Example 1, 2-fluoro-2-(1,1,2,2,2-pentafluoroethyl)-3,3-bis(trifluoromethyl)tetrahydrofuran] | 0.37 yr | 17 |
| FC(F)(F)C(F)(F)C(F)(F)C1(C(F)(F)F)CCOC1(F)C(F)(C(F)(F)F)C(F)(F)F (centres unmarked) [Example 2, 2-fluoro-3-(1,1,2,2,3,3,3-heptafluoropropyl)-2-[1,2,2,2-tetrafluoro-1-(trifluoromethyl)ethyl]-3-(trifluoromethyl)tetrahydrofuran] | 0.1 yr | 11 |
| NOVEC 7700 [Comparative Example CE2] | 5.6 yr | 436 |
